From PubChem BioAssay AID1347075 (National Center for Advancing Translational Sciences (NCATS), 2019)
Out of some 400,000 compounds screened, about 5,500 (1.4%) were called active. The inconclusive results got no clear call from the source; some entries with a clear call stand among them for comparison. Calls come from the whole dose curve; as a rule, active = well fitted cell-killing curve with a large enough effect; inconclusive = small, poorly fitted or top-dose-only effect, or effect the other way; inactive = flat fitted curve, though single readings scatter. Potencies beside an inconclusive call are fits to weak or partial responses and may not hold up.

Assay: qHTS assay for MDR1-selective chemotherapeutics: Primary screen using the parental adenocarcinoma cell KB-3-1; note: nearly all actives have a fitted effect of over 60% in size
Conditions: KB-3-1 viability, CellTiter-Glo ATP luminescence, 72 h; activity change, negative = cytotoxic: at 46.1 µM (top of the series)
How it was run: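 Screening of KB-3-1 cells (DMEM, 10% FBS, phenol-red free) ran from lowest to highest compound concentration; after 72 h at 37 °C viability was read luminescently and curves fitted.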
% is set by controls: 0 for no effect and ±100 for the full control effect; potency is the fitted concentration of half-maximal effect.

| SMILES | Potency | activity change, negative = cytotoxic |
| --- | --- | --- |
| COc1ccc(C(CNC(=O)c2cc3c(s2)CCC(C)C3)N2CCOCC2)cc1 (stereo not given) | inactive | – |
| COc1ccc(N2CC(C(=O)N3CCCC(C)C3)CC2=O)cc1 (stereo not given) | inactive | – |
| CCOc1ccc(C(=O)Nc2cnn(Cc3ccc(Cl)c(Cl)c3)c2)cc1 | inconclusive: 3.26 µM [cytotoxic, partial curve, poor fit] | – |
| CC1CC2(CCCC2)N(C(=O)c2ccccc2)Cc2ccccc21 (stereo not given) | inconclusive: 29.1 µM [cytotoxic, single point] | – |
| O=C1C=C(c2cccc(O)c2)CCC1 | inactive | – |
| CCOc1ccc(/C=C/[N+](=O)[O-])c2ccccc12 | inconclusive: 32.6 µM [cytotoxic, single point] | – |
| Cc1cc(C)cc(N2C(=O)N(Cc3cccc(F)c3)c3ccccc3S2(=O)=O)c1 | inactive | – |
| Cc1ccc2nc3[nH]c(=O)[nH]c(=O)c3c(N)c2c1 | inconclusive: 18.4 µM [cytotoxic, partial curve] | – |
| Cc1ccc(CSc2nc3ccccc3c(=O)n2Cc2ccco2)cc1 | inconclusive: 4.11 µM [cytotoxic, partial curve, poor fit] | – |
| Cc1ccc(CNC(=O)c2cc(-c3ccc(Cl)cc3)on2)cc1 | inactive | – |
| CCCCN(C(=O)c1[nH]c(C)c(C(=O)OCC)c1C)c1c(N)n(CCCC)c(=O)[nH]c1=O | inconclusive: 18.4 µM [rising, partial curve, poor fit] | – |
| O=C(c1ccccc1)C(I)(I)N1CCOCC1 | inconclusive: 29.1 µM [rising, single point] | – |
| COc1cc(OC)c(C(=O)/C=C/c2ccccc2)c(O)c1O | inconclusive: 32.6 µM [cytotoxic, partial curve, poor fit] | – |
| O=C1Nc2ccccc2SC1c1ccccc1Cl (stereo not given) | inconclusive: 29.1 µM [cytotoxic, single point] | – |
| Cc1cc(C)cc(-n2c(C)cc(/C=N\NC(=O)COc3cccc4cccnc34)c2C)c1 | – | inconclusive: 0.41% |
| O=c1[nH]n(-c2ccc(F)cc2)c2ncccc12 | inconclusive: 6.51 µM [cytotoxic, partial curve, poor fit] | – |
| O=C(COC(=O)c1cc(S(=O)(=O)N2CCCCC2)ccc1N1CCOCC1)c1ccc(F)cc1 | inactive | – |
| O=C(NC1CCN(C(=O)N2c3ccccc3Sc3ccccc32)CC1)c1ccco1 | inconclusive: 29.1 µM [cytotoxic, single point] | – |
| Cn1cc(C(=O)NC2CCCCC2)c(=O)c2cc(S(=O)(=O)N3CCOCC3)ccc21 | inconclusive: 16.4 µM [rising, partial curve] | – |
| CN(C)CCN1CCN([C@H]2CS(=O)(=O)N[C@@H]2COCc2ccccc2)CC1 | inconclusive: 29.1 µM [cytotoxic, single point] | – |
| O=C(CCN1C(=O)C2CCCCC2C1=O)N1CCN(S(=O)(=O)c2c(F)cccc2F)CC1 (stereo not given) | inconclusive: 8.2 µM [rising, single point] | – |
| COc1ccc(OC)c(CNC(=O)c2ccc3c(c2)c(C)c(C)n3Cc2ccc(Cl)cc2)c1 | inconclusive: 29.1 µM [cytotoxic, single point] | – |
| C=CC(=O)Nc1ccc(Br)cc1 | inconclusive: 29.1 µM [cytotoxic, single point] | – |
| O=C(C1CCCN(S(=O)(=O)c2cccc3nsnc23)C1)N1CCN(c2ccccc2)CC1 (stereo not given) | inconclusive: 0.651 µM [cytotoxic, partial curve, poor fit] | – |

| SMILES | Potency | activity change, negative = cytotoxic |
| --- | --- | --- |
| O=C1NCN(c2ccccc2)C12CCN(CCCC(c1ccc(F)cc1)c1ccc(F)cc1)CC2 | inconclusive: 29.1 µM [cytotoxic, single point] | – |
| CCc1ccc(NC(=O)CN(c2ccc(Cl)cc2)S(=O)(=O)c2ccsc2C(=O)OC)cc1 | inconclusive: 20.6 µM [cytotoxic, single point] | – |
| Oc1ccc2ccccc2c1N=Nc1ccccn1 | inconclusive: 29.1 µM [cytotoxic, single point] | – |
| COc1ccc(CN2CCc3ccccc3C2)cc1Br | inactive | – |
| COc1ccccc1CN1CCN(S(=O)(=O)c2ccc(C)cc2)CC1 | inactive | – |
| N#C/C(=C\c1ccc(O)c([N+](=O)[O-])c1)C(=O)NCc1ccccc1 | inconclusive: 29.1 µM [cytotoxic, single point] | – |
| CC(=O)Nc1cccc(NC(=O)CSc2nc(=O)n3cccc(C)c3n2)c1 | inactive | – |
| Oc1ccc(-c2csc(-c3c[nH]c4ccccc34)n2)c(O)c1 | active: 18.4 µM | – |
| CCOC(=O)c1noc2nc(C)n(CC(=O)NC(C)CC)c(=O)c12 (stereo not given) | inconclusive: 29.1 µM [cytotoxic, single point] | – |
| O=[N+]([O-])c1cccc(COc2ccccc2CO)c1 | inactive | – |
| CCOc1ccc(-c2nc(N)ncc2-c2ccccc2)c(O)c1 | active: 14.6 µM | – |
| Cc1cnc(C)c(Nc2nc(C(N)Cc3ccc(Cl)cc3)cs2)n1 (stereo not given) | inconclusive: 29.1 µM [cytotoxic, single point] | – |
| CC(=O)Nc1ccc(S(=O)(=O)NCCC(=O)NCCOc2ccccc2)cc1 | inconclusive: 14.6 µM [rising, partial curve, poor fit] | – |
| COc1cccc(/C=N/NC(=O)CNC(=O)C2COc3ccccc3O2)c1O (stereo not given) | inconclusive: 18.4 µM [cytotoxic, single point] | – |
| Cc1ccsc1C1NC(=O)c2ccccc2N1 (stereo not given) | inconclusive: 18.4 µM [cytotoxic, single point] | – |
| Cc1csc(=O)n1CC(=O)Nc1ccc(C(C)C)cc1 | inactive | – |
| CC1CCN(c2nc(CN3CCCCC3)nc3scc(-c4ccccc4)c23)CC1 | inconclusive: 23.1 µM [cytotoxic, single point] | – |
| Cc1ccc(COc2ccccc2-c2cc(C(=O)N/N=C/c3cccnc3)[nH]n2)cc1 | inconclusive: 23.1 µM [cytotoxic, single point] | – |
| COc1ccc(CN(C)Cc2c(O)ccc3ccccc23)cc1 | inactive | – |
| COc1ccc(-c2noc(N3CCC(C(=O)Nc4cccc(OC)c4)CC3)n2)cc1 | inconclusive: 16.4 µM [cytotoxic, single point] | – |
| Cc1ccc(NC(=O)C2CCCN(C(=O)c3cnn(-c4ccc(F)cc4)c3-n3cccc3)C2)c(Cl)c1 (stereo not given) | inconclusive: 29.1 µM [cytotoxic, single point] | – |
| CN(Cc1c(F)cccc1Cl)c1ccc(S(=O)(=O)N2CCOCC2)cn1 | inconclusive: 20.6 µM [cytotoxic, single point] | – |
| COc1ccc(-n2c(-c3ccco3)nc3c(cnn3-c3ccc(Cl)cc3)c2=O)cc1 | inconclusive: 29.1 µM [cytotoxic, single point] | – |
| CC1CC(CC(=O)NC(=S)Nc2ccccc2Cl)C(=O)O1 (stereo not given) | – | inconclusive: -4.36% |

Reformatted as tab-separated lines: 17 of the compounds above
SMILES	Potency	activity change, negative = cytotoxic
CCc1ccc(NC(=O)CN(c2ccc(Cl)cc2)S(=O)(=O)c2ccsc2C(=O)OC)cc1	inconclusive: 20.6 µM [cytotoxic, single point]	–
Oc1ccc2ccccc2c1N=Nc1ccccn1	inconclusive: 29.1 µM [cytotoxic, single point]	–
COc1ccc(CN2CCc3ccccc3C2)cc1Br	inactive	–
CC(=O)Nc1cccc(NC(=O)CSc2nc(=O)n3cccc(C)c3n2)c1	inactive	–
O=[N+]([O-])c1cccc(COc2ccccc2CO)c1	inactive	–
CCOc1ccc(-c2nc(N)ncc2-c2ccccc2)c(O)c1	active: 14.6 µM	–
CC(=O)Nc1ccc(S(=O)(=O)NCCC(=O)NCCOc2ccccc2)cc1	inconclusive: 14.6 µM [rising, partial curve, poor fit]	–
COc1cccc(/C=N/NC(=O)CNC(=O)C2COc3ccccc3O2)c1O (stereo not given)	inconclusive: 18.4 µM [cytotoxic, single point]	–
Cc1ccsc1C1NC(=O)c2ccccc2N1 (stereo not given)	inconclusive: 18.4 µM [cytotoxic, single point]	–
Cc1csc(=O)n1CC(=O)Nc1ccc(C(C)C)cc1	inactive	–
CC1CCN(c2nc(CN3CCCCC3)nc3scc(-c4ccccc4)c23)CC1	inconclusive: 23.1 µM [cytotoxic, single point]	–
Cc1ccc(COc2ccccc2-c2cc(C(=O)N/N=C/c3cccnc3)[nH]n2)cc1	inconclusive: 23.1 µM [cytotoxic, single point]	–
COc1ccc(CN(C)Cc2c(O)ccc3ccccc23)cc1	inactive	–
COc1ccc(-c2noc(N3CCC(C(=O)Nc4cccc(OC)c4)CC3)n2)cc1	inconclusive: 16.4 µM [cytotoxic, single point]	–
Cc1ccc(NC(=O)C2CCCN(C(=O)c3cnn(-c4ccc(F)cc4)c3-n3cccc3)C2)c(Cl)c1 (stereo not given)	inconclusive: 29.1 µM [cytotoxic, single point]	–
CN(Cc1c(F)cccc1Cl)c1ccc(S(=O)(=O)N2CCOCC2)cn1	inconclusive: 20.6 µM [cytotoxic, single point]	–
COc1ccc(-n2c(-c3ccco3)nc3c(cnn3-c3ccc(Cl)cc3)c2=O)cc1	inconclusive: 29.1 µM [cytotoxic, single point]	–

Next records

| SMILES | Potency | activity change, negative = cytotoxic |
| --- | --- | --- |
| COc1ccc([N+](=O)[O-])cc1N(CC(=O)N(C)C)S(C)(=O)=O | inactive | – |
| CC(C)C1NC(C(=O)O)Cc2c1[nH]c1ccccc21 (stereo not given) | inconclusive: 29.1 µM [cytotoxic, single point] | – |
| COc1cccc(-c2nc(C(=O)NCC3CCCO3)cc3c2[nH]c2ccccc23)c1 (stereo not given) | inconclusive: 29.1 µM [cytotoxic, single point] | – |
| O=C(/C=C/c1cccnc1)/C=C/c1cccnc1 | active: 2.59 µM | – |
| COc1ccc(NC(=S)/N=C(\N)Nc2nc(C)c3ccc(C)cc3n2)cc1 | inconclusive: 20.6 µM [cytotoxic, partial curve] | – |
| CCn1c(SCC(=O)c2ccccc2)nnc1-c1cc2cc(Br)ccc2o1 | inconclusive: 23.1 µM [cytotoxic, single point] | – |
| Cc1cc(Cl)ccc1OCC(=O)Nc1ccccc1N1CCOCC1 | inconclusive: 18.4 µM [cytotoxic, single point] | – |
| Nc1ccc2c(c1)C(O)c1cccc(C(=O)O)c1-2 (stereo not given) | inactive | – |
| COc1ccc(S(=O)(=O)Nc2ccc3oc4c(c3c2)CCCC4)cc1 | inactive | – |
| CS(=O)(=O)c1ccc(Cl)c(NC(=O)C2CC(=O)N(c3ccc4c(c3)OCCO4)C2)c1 (stereo not given) | inconclusive: 29.1 µM [rising, single point] | – |
| CCCCCc1cc(=O)oc2c(C(CCN3CCCC3)c3cc(OC)c(OC)c(OC)c3)c(OC)cc(OC)c12 (stereo not given) | inconclusive: 18.4 µM [cytotoxic, single point] | – |
| CCOC(=O)c1cccc(NC(=O)Nc2ccc3c(c2)C(=O)OC3)c1 | inactive | – |
| CC(C)(C)NS(=O)(=O)c1ccc(Oc2ncc(C(F)(F)F)cc2Cl)cc1 | inconclusive: 29.1 µM [cytotoxic, single point] | – |
| CSc1nnc2c3ccccc3n(CCc3ccccc3)c2n1 | active: 9.2 µM | – |
| Cc1ccc(NC(=O)C2CCN(S(=O)(=O)c3ccc4c(c3)NC(=O)C(C)S4)CC2)c(Cl)c1 (stereo not given) | inconclusive: 29.1 µM [cytotoxic, single point] | – |
| COCc1ccc(C(=O)N2CCCC(CCC(=O)NCc3ccccc3F)C2)o1 (stereo not given) | inconclusive: 16.4 µM [cytotoxic, single point] | – |
| CCN(CC)c1ccc(/C=N/NC(=O)CNC(=O)C2COc3ccccc3O2)c(O)c1 (stereo not given) | inconclusive: 2.59 µM [cytotoxic, full curve] | – |
| CCOc1ccc(NS(=O)(=O)c2ccc(C(=O)N(C)C)s2)cc1 | inactive | – |
| CN(C)C(=O)c1cc(C(=O)c2ccc(F)cc2C(F)(F)F)c[nH]1 | inconclusive: 11.6 µM [cytotoxic, partial curve] | – |
| COc1cc([N+](=O)[O-])ccc1NC(=O)CC1SC(=Nc2ccc(F)cc2)N(CCC2=CCCCC2)C1=O (stereo not given) | active: 9.2 µM | – |
| COc1cc(OC)cc(-n2nnnc2SCC(=O)Nc2ccc(C(C)=O)cc2)c1 | inactive | – |
| COc1cc(/C=C/C(=O)O)cc(S(=O)(=O)Nc2ccc3nc(C)sc3c2)c1OC | – | inconclusive: -4.79% |

For convenience, part of the list above:

| SMILES | Potency | activity change, negative = cytotoxic |
| --- | --- | --- |
| Cc1ccc(NC(=O)C2CCN(S(=O)(=O)c3ccc4c(c3)NC(=O)C(C)S4)CC2)c(Cl)c1 (stereo not given) | inconclusive: 29.1 µM [cytotoxic, single point] | – |
| COCc1ccc(C(=O)N2CCCC(CCC(=O)NCc3ccccc3F)C2)o1 (stereo not given) | inconclusive: 16.4 µM [cytotoxic, single point] | – |
